# Some of the results follow.
# B1: pilr alpha (protein)
# chain: MLYGVTQPKHLSASMGGSVEIPFSFYYPWELATAPDVRISWRRGHFHRQSFYSTRPPSIHKDYVNRLFLNWTEGQKSGFLRISNLQKQDQSVYFCRVELDTRSSGRQQWQSIEGTKLSIT
# Assays:
# Assay in all cases: glycan array binding signal (z-score within array); higher = stronger binding
# Conditions in all cases: glycan notation: IUPAC condensed, linker removed
# [1] = molecular target: Fuc(a1-2)Gal6S(b1-3)GlcNAc6S
# Method in brief: (§1)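 Negative Z-scores can be read as non-binding. The Z-score is calculated within each array and then averaged across arrays of one protein sequence at different concentrations or buffers and across linkers. Arrays, 3228 in all, were curated from the Consortium for Functional Glycomics database and kept only where the protein sequence was available.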
# Fuc(a1-2)Gal6S(b1-4)Glc = molecular target: Fuc(a1-2)Gal6S(b1-4)Glc
# Method in brief: as §1
# [2] = molecular target: Fuc(a1-2)Gal6S(b1-4)Glc6S
# Method in brief: as §1
# Fuc(a1-2)[Gal(a1-3)]Gal = molecular target: Fuc(a1-2)[Gal(a1-3)]Gal
# Method in brief: as §1
# [3] = molecular target: Fuc(a1-2)[Gal(a1-3)]Gal(b1-3)GalNAc
# Method in brief: as §1
# [4] = molecular target: Fuc(a1-2)[Gal(a1-3)]Gal(b1-3)GalNAc(b1-3)Gal(a1-4)Gal(b1-4)Glc
# Method in brief: as §1
# [5] = molecular target: Fuc(a1-2)[Gal(a1-3)]Gal(b1-3)GlcNAc
# Method in brief: as §1
# [6] = molecular target: Fuc(a1-2)[Gal(a1-3)]Gal(b1-3)GlcNAc(b1-2)Man(a1-3)[Fuc(a1-2)[Gal(a1-3)]Gal(b1-3)GlcNAc(b1-2)Man(a1-6)]Man(b1-4)GlcNAc(b1-4)GlcNAc
# Method in brief: as §1
# [7] = molecular target: Fuc(a1-2)[Gal(a1-3)]Gal(b1-3)GlcNAc(b1-2)Man(a1-3)[Fuc(a1-2)[Gal(a1-3)]Gal(b1-3)GlcNAc(b1-2)Man(a1-6)]Man(b1-4)GlcNAc(b1-4)[Fuc(a1-6)]GlcNAc
# Method in brief: as §1
# [8] = molecular target: Fuc(a1-2)[Gal(a1-3)]Gal(b1-3)GlcNAc(b1-3)GalNAc
# Method in brief: as §1
# [9] = molecular target: Fuc(a1-2)[Gal(a1-3)]Gal(b1-3)GlcNAc(b1-6)GalNAc
# Method in brief: as §1
# [10] = molecular target: Fuc(a1-2)[Gal(a1-3)]Gal(b1-4)Glc
# Method in brief: as §1
# [11] = molecular target: Fuc(a1-2)[Gal(a1-3)]Gal(b1-4)GlcNAc
# Method in brief: as §1
# [12] = molecular target: Fuc(a1-2)[Gal(a1-3)]Gal(b1-4)GlcNAc(b1-2)Man
# Method in brief: as §1
# [13] = molecular target: Fuc(a1-2)[Gal(a1-3)]Gal(b1-4)GlcNAc(b1-2)Man(a1-3)[Fuc(a1-2)[Gal(a1-3)]Gal(b1-4)GlcNAc(b1-2)Man(a1-6)]Man(b1-4)GlcNAc(b1-4)GlcNAc
# Method in brief: as §1
# [14] = molecular target: Fuc(a1-2)[Gal(a1-3)]Gal(b1-4)GlcNAc(b1-2)Man(a1-3)[Fuc(a1-2)[Gal(a1-3)]Gal(b1-4)GlcNAc(b1-2)Man(a1-6)]Man(b1-4)GlcNAc(b1-4)[Fuc(a1-6)]GlcNAc
# Method in brief: as §1
# [15] = molecular target: Fuc(a1-2)[Gal(a1-3)]Gal(b1-4)GlcNAc(b1-3)GalNAc
# Method in brief: as §1
# [16] = molecular target: Fuc(a1-2)[Gal(a1-3)]Gal(b1-4)GlcNAc(b1-3)[Fuc(a1-2)[Gal(a1-3)]Gal(b1-4)GlcNAc(b1-6)]GalNAc
# Method in brief: as §1
# [17] = molecular target: Fuc(a1-2)[Gal(a1-3)]Gal(b1-4)GlcNAc(b1-6)GalNAc
# Method in brief: as §1
# [18] = molecular target: Fuc(a1-2)[Gal(a1-3)]Gal(b1-4)[Fuc(a1-3)]Glc
# Method in brief: as §1
# [19] = molecular target: Fuc(a1-2)[Gal(a1-3)]Gal(b1-4)[Fuc(a1-3)]GlcNAc
# Method in brief: as §1
# [20] = molecular target: Fuc(a1-2)[Gal(a1-3)]Gal(b1-4)[Fuc(a1-3)]GlcNAc(b1-3)GalNAc
# Method in brief: as §1
# [21] = molecular target: Fuc(a1-2)[Gal(a1-4)]Gal(b1-4)GlcNAc
# Method in brief: as §1
# [22] = molecular target: Fuc(a1-2)[GalNAc(a1-3)]Gal
# Method in brief: as §1
# [23] = molecular target: Fuc(a1-2)[GalNAc(a1-3)]Gal(b1-3)GalNAc(a1-3)[Fuc(a1-2)]Gal(b1-4)GlcNAc
# Method in brief: as §1
# [24] = molecular target: Fuc(a1-2)[GalNAc(a1-3)]Gal(b1-3)GalNAc(b1-3)Gal(a1-4)Gal(b1-4)Glc
# Method in brief: as §1
# [25] = molecular target: Fuc(a1-2)[GalNAc(a1-3)]Gal(b1-3)GlcNAc
# Method in brief: as §1
# [26] = molecular target: Fuc(a1-2)[GalNAc(a1-3)]Gal(b1-3)GlcNAc(b1-2)Man(a1-3)[Fuc(a1-2)[GalNAc(a1-3)]Gal(b1-3)GlcNAc(b1-2)Man(a1-6)]Man(b1-4)GlcNAc(b1-4)GlcNAc
# Method in brief: as §1
# [27] = molecular target: Fuc(a1-2)[GalNAc(a1-3)]Gal(b1-3)GlcNAc(b1-2)Man(a1-3)[Fuc(a1-2)[GalNAc(a1-3)]Gal(b1-3)GlcNAc(b1-2)Man(a1-6)]Man(b1-4)GlcNAc(b1-4)[Fuc(a1-6)]GlcNAc
# Method in brief: as §1
# [28] = molecular target: Fuc(a1-2)[GalNAc(a1-3)]Gal(b1-3)GlcNAc(b1-3)GalNAc
# Method in brief: as §1
# [29] = molecular target: Fuc(a1-2)[GalNAc(a1-3)]Gal(b1-3)GlcNAc(b1-6)GalNAc
# Method in brief: as §1
# [30] = molecular target: Fuc(a1-2)[GalNAc(a1-3)]Gal(b1-4)Glc
# Method in brief: as §1
# [31] = molecular target: Fuc(a1-2)[GalNAc(a1-3)]Gal(b1-4)GlcNAc
# Method in brief: as §1
# [32] = molecular target: Fuc(a1-2)[GalNAc(a1-3)]Gal(b1-4)GlcNAc(b1-2)Man
# Method in brief: as §1
# [33] = molecular target: Fuc(a1-2)[GalNAc(a1-3)]Gal(b1-4)GlcNAc(b1-2)Man(a1-3)[Fuc(a1-2)[GalNAc(a1-3)]Gal(b1-4)GlcNAc(b1-2)Man(a1-6)]Man(b1-4)GlcNAc(b1-4)GlcNAc
# Method in brief: as §1
# [34] = molecular target: Fuc(a1-2)[GalNAc(a1-3)]Gal(b1-4)GlcNAc(b1-2)Man(a1-3)[Fuc(a1-2)[GalNAc(a1-3)]Gal(b1-4)GlcNAc(b1-2)Man(a1-6)]Man(b1-4)GlcNAc(b1-4)[Fuc(a1-6)]GlcNAc
# Method in brief: as §1
# [35] = molecular target: Fuc(a1-2)[GalNAc(a1-3)]Gal(b1-4)GlcNAc(b1-3)Gal(b1-4)GlcNAc
# Method in brief: as §1
# [36] = molecular target: Fuc(a1-2)[GalNAc(a1-3)]Gal(b1-4)GlcNAc(b1-3)Gal(b1-4)GlcNAc(b1-3)Gal(b1-4)GlcNAc
# Method in brief: as §1
# [37] = molecular target: Fuc(a1-2)[GalNAc(a1-3)]Gal(b1-4)GlcNAc(b1-3)GalNAc
# Method in brief: as §1
# [38] = molecular target: Fuc(a1-2)[GalNAc(a1-3)]Gal(b1-4)GlcNAc(b1-3)[Fuc(a1-2)[GalNAc(a1-3)]Gal(b1-4)GlcNAc(b1-6)]GalNAc
# Method in brief: as §1
# [39] = molecular target: Fuc(a1-2)[GalNAc(a1-3)]Gal(b1-4)GlcNAc(b1-6)GalNAc
# Method in brief: as §1
# [40] = molecular target: Fuc(a1-2)[GalNAc(a1-3)]Gal(b1-4)[Fuc(a1-3)]GlcNAc
# Method in brief: as §1
# [41] = molecular target: Fuc(a1-2)[GalNAc(a1-3)]Gal(b1-4)[Fuc(a1-3)]GlcNAc(b1-3)GalNAc
# Method in brief: as §1
# [42] = molecular target: Fuc(a1-2)[GalNAc(a1-4)]Gal(b1-4)GlcNAc
# Method in brief: as §1
# [43] = molecular target: Fuc(a1-2)[GalNAc(b1-3)]Gal
# Method in brief: as §1
binder,measurement,setting,value
B1,glycan array binding signal (z-score),[1],-0.16
same,glycan array binding signal (z-score),Fuc(a1-2)Gal6S(b1-4)Glc,-0.519
same,glycan array binding signal (z-score),[2],0.033
same,glycan array binding signal (z-score),Fuc(a1-2)[Gal(a1-3)]Gal,1.5
same,glycan array binding signal (z-score),[3],0.531
same,glycan array binding signal (z-score),[4],0.344
same,glycan array binding signal (z-score),[5],0.165
same,glycan array binding signal (z-score),[6],-0.093
same,glycan array binding signal (z-score),[7],-0.464
same,glycan array binding signal (z-score),[8],-0.529
same,glycan array binding signal (z-score),[9],-0.796
same,glycan array binding signal (z-score),[10],-0.394
same,glycan array binding signal (z-score),[11],-0.848
same,glycan array binding signal (z-score),[12],0.092
same,glycan array binding signal (z-score),[13],-0.681
same,glycan array binding signal (z-score),[14],-0.349
same,glycan array binding signal (z-score),[15],-0.646
same,glycan array binding signal (z-score),[16],-0.015
same,glycan array binding signal (z-score),[17],-0.722
same,glycan array binding signal (z-score),[18],0.055
same,glycan array binding signal (z-score),[19],-0.462
same,glycan array binding signal (z-score),[20],-0.278
same,glycan array binding signal (z-score),[21],0.433
same,glycan array binding signal (z-score),[22],-0.087
same,glycan array binding signal (z-score),[23],-0.449
same,glycan array binding signal (z-score),[24],-0.261
same,glycan array binding signal (z-score),[25],0.551
same,glycan array binding signal (z-score),[26],-0.081
same,glycan array binding signal (z-score),[27],-0.608
same,glycan array binding signal (z-score),[28],-0.147
same,glycan array binding signal (z-score),[29],-0.309
same,glycan array binding signal (z-score),[30],0.839
same,glycan array binding signal (z-score),[31],-0.195
same,glycan array binding signal (z-score),[32],-0.251
same,glycan array binding signal (z-score),[33],0.043
same,glycan array binding signal (z-score),[34],-0.529
same,glycan array binding signal (z-score),[35],-0.543
same,glycan array binding signal (z-score),[36],0.261
same,glycan array binding signal (z-score),[37],-0.415
same,glycan array binding signal (z-score),[38],-0.94
same,glycan array binding signal (z-score),[39],-0.245
same,glycan array binding signal (z-score),[40],-0.358
same,glycan array binding signal (z-score),[41],6.68
same,glycan array binding signal (z-score),[42],0.018
same,glycan array binding signal (z-score),[43],-0.304

# — the supplement of paper PMC8728848
